Data reported in paper PMC8508666.
Results are given in words; binding and its absence hold for the method and conditions named. In cells and extracts the contact can be indirect. Some binding calls cover weakened binding; strength is not graded here. For part of these data: Sequences can lack the tags named with a protein.

Protein sequences, listed by entry. Tags and fused reporters are not part of them.
UniProt P60468: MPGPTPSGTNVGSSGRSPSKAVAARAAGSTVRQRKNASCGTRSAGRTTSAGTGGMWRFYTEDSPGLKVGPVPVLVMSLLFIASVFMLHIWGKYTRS
UniProt Q9UGP8: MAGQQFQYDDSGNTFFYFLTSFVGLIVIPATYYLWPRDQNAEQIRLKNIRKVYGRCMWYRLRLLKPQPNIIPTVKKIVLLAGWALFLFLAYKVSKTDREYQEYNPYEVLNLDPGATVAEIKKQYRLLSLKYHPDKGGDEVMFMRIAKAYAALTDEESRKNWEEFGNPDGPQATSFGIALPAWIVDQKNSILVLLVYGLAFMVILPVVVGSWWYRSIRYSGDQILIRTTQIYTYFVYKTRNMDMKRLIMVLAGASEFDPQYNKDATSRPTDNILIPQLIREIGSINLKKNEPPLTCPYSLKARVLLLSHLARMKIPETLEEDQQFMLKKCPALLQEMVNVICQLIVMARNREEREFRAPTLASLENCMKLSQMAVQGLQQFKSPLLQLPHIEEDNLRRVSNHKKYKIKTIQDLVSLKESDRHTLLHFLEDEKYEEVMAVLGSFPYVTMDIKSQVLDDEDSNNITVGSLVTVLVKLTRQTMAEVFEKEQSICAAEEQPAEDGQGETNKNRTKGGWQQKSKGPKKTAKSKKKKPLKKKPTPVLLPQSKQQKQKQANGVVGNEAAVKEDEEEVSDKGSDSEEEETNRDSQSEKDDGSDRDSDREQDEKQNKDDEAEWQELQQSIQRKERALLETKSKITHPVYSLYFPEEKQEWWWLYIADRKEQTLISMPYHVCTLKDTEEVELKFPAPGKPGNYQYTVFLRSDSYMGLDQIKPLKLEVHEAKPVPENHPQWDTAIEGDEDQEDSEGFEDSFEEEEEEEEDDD
UniProt P61619: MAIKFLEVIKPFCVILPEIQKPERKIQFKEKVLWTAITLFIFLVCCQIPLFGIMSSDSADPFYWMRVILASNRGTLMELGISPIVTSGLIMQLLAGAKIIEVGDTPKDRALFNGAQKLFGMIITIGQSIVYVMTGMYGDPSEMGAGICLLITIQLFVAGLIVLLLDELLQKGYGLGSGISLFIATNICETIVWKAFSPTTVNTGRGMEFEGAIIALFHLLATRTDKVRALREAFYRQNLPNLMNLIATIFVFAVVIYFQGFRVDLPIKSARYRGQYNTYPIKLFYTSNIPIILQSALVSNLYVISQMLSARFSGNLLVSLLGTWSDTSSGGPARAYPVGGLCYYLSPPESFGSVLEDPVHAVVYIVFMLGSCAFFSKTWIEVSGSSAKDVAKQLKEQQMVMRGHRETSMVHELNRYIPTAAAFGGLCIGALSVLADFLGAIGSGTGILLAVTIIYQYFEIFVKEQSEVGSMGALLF

How the values were obtained:
Assay in all cases: split reporter; BiLC with competition: living HeLa cells, triple transfection of the reporter pair with a third plasmid (CMV promoter) for an untagged partner, or empty vector as control
[1] = target: Sec61β, N-terminally tagged with SmBiT (UniProt P60468)
[2] = target: Sec63, N-terminally tagged with SmBiT (UniProt Q9UGP8)
[3] = target: T1, TRAPβ, C-terminally tagged with SmBiT (UniProt P43308)
T1 sequence: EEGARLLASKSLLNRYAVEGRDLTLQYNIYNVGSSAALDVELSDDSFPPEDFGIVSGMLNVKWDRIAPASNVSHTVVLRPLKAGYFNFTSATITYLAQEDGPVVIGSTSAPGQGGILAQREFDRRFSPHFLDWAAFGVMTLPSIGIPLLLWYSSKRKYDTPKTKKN

## untagged Sec61α (from UniProt P61619 1-476)
[1]
  binding: binds

## untagged Sec61β (from UniProt P60468 1-96)
[2]
  binding: binds

B1: untagged TRAPα (protein, UniProt P43307 19-286)
chain: VLFRGGPRGLLAVAQDLTEDEETVEDSIIEDEDDEAEVEEDEPTDLVEDKEEEDVSGEPEASPSADTTILFVKGEDFPANNIVKFLVGFTNKGTEDFIVESLDASFRYPQDYQFYIQNFTALPLNTVVPPQRQATFEYSFIPAEPMGGRPFGLVINLNYKDLNGNVFQDAVFNQTVTVIEREDGLDGETIFMYMFLAGLGLLVIVGLHQLLESRKRKRPIQKVEMGTSSQNDVDMSWIPQETLNQINKASPRRLPRKRAQKRSVGSDE
[3]
  binding: binds
